Measured data: PubChem BioAssay AID652272 (Drosophila RNAi Screening Center, 2013)
Assay: 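Finding fly genes that regulate Hedgehog signal transduction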 (primary screen). Cells: Drosophila clone 8 (Cl8) cells. Reagent: long dsRNA against Drosophila genes. Detection: 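Firefly light from a Hedgehog-responsive ptc promoter reporter and Renilla reference light, both read on a plate reader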. Scale: firefly Hh reporter signal: higher = more ptc reporter light; Renilla reference signal: higher = more Renilla control light. Rule for the call: 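Called a hit if the two-replicate mean z-score lies below -2 or above +3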. Calls: active = hit: reporter lowered or raised; inactive = not a hit.
The deposit covers about 21,000 reagents; below is a random part of those with a known target gene and a result. In the full data, 503 (2.4%) got an active call. 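Raw plate light values, not normalised; calls rest on replicate z-scores that were not deposited; hits include reporter decreases as well as increases.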 Entries without a mark were called inactive. The numbers tell different reagents against one gene apart. The record does not give: the amount of reagent, the time to read-out.

With knock-down of CG14641 (GeneID 40529), the screen gave firefly Hh reporter signal, replicate 1 = 1.00e5 (active); firefly Hh reporter signal, replicate 2 = 61971; Renilla reference signal, replicate 1 = 6216; Renilla reference signal, replicate 2 = 3671.
Knock-down of CG11060 (GeneID 35641) resulted in: firefly Hh reporter signal, replicate 1 = 86548; firefly Hh reporter signal, replicate 2 = 86163; Renilla reference signal, replicate 1 = 3460; Renilla reference signal, replicate 2 = 3577.
For CG6660 (GeneID 42708), the entry reads firefly Hh reporter signal, replicate 1 = 1.58e5; firefly Hh reporter signal, replicate 2 = 72243; Renilla reference signal, replicate 1 = 7408; Renilla reference signal, replicate 2 = 3165.
CG15450 (GeneID 33064) showed firefly Hh reporter signal, replicate 1 = 1.18e5; firefly Hh reporter signal, replicate 2 = 56602; firefly Hh reporter signal, replicate 3 = 5.08e5; Renilla reference signal, replicate 1 = 7927; Renilla reference signal, replicate 2 = 1782.
After knock-down of gt (GeneID 31227) the results were firefly Hh reporter signal, replicate 1 = 23348; firefly Hh reporter signal, replicate 2 = 1.14e5; Renilla reference signal, replicate 1 = 587; Renilla reference signal, replicate 2 = 5432.
Depletion of Edc3 (GeneID 39957) gave: firefly Hh reporter signal, replicate 1 = 1.28e5; firefly Hh reporter signal, replicate 2 = 63299; Renilla reference signal, replicate 1 = 5420; Renilla reference signal, replicate 2 = 2978.
CG4757 (GeneID 41330) gave firefly Hh reporter signal, replicate 1 = 51987; firefly Hh reporter signal, replicate 2 = 99936; Renilla reference signal, replicate 1 = 1243; Renilla reference signal, replicate 2 = 2781.
Against CG12523 (GeneID 39216), the values are firefly Hh reporter signal, replicate 1 = 62568; firefly Hh reporter signal, replicate 2 = 62729; firefly Hh reporter signal, replicate 3 = 5.28e5; Renilla reference signal, replicate 1 = 6603; Renilla reference signal, replicate 2 = 2707.
After knock-down of CG14710 (GeneID 41393), the record shows firefly Hh reporter signal, replicate 1 = 1.16e5; firefly Hh reporter signal, replicate 2 = 77008; Renilla reference signal, replicate 1 = 4869; Renilla reference signal, replicate 2 = 2976.
With knock-down of Naa80 (GeneID 41195) the results were firefly Hh reporter signal, replicate 1 = 59530; firefly Hh reporter signal, replicate 2 = 92932; Renilla reference signal, replicate 1 = 1798; Renilla reference signal, replicate 2 = 2854.
With knock-down of Rab35 (GeneID 33014), the screen gave firefly Hh reporter signal, replicate 1 = 1.31e5; firefly Hh reporter signal, replicate 2 = 69459; Renilla reference signal, replicate 1 = 3091; Renilla reference signal, replicate 2 = 1993.
CG15628 (GeneID 33681) #1 scored firefly Hh reporter signal, replicate 1 = 3.68e5; firefly Hh reporter signal, replicate 2 = 68218; Renilla reference signal, replicate 1 = 19283; Renilla reference signal, replicate 2 = 3296.
For CG15628 (GeneID 33681) #2 the deposit lists firefly Hh reporter signal, replicate 1 = 1.03e5; firefly Hh reporter signal, replicate 2 = 72781; Renilla reference signal, replicate 1 = 2806; Renilla reference signal, replicate 2 = 5840.

2 entries from above, sorted by “Renilla reference signal, replicate 1”, descending.
CG15628 (GeneID 33681) #1 | firefly Hh reporter signal, replicate 1: 3.68e5; firefly Hh reporter signal, replicate 2: 68218; Renilla reference signal, replicate 1: 19283; Renilla reference signal, replicate 2: 3296
Rab35 (GeneID 33014) | firefly Hh reporter signal, replicate 1: 1.31e5; firefly Hh reporter signal, replicate 2: 69459; Renilla reference signal, replicate 1: 3091; Renilla reference signal, replicate 2: 1993
